PubChem BioAssay AID504793 – Drosophila RNAi Screening Center | 2011

Purpose: 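Genes required for cells to halt at G2/M after double-strand DNA breaks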 (primary screen)
Cells: Drosophila S2R+ cells
Reagent: long dsRNA against Drosophila genes, about 0.25 µg dsRNA per well
Duration: 4 days of dsRNA, then 4 hours of drug before read-out
Treatment: doxorubicin 0.5 µM for 4 hours to cause double-strand breaks, in cells also given a low, harmless dose of dsRNA against nbs to sensitise the assay
Detection: 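Mitotic index as the number of phospho-histone H3-positive cells in each well following doxorubicin, given as raw counts without normalisation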
Direction: mitotic cells: higher = more cells in mitosis, weaker G2 arrest
Hit rule: 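Genes are called active only when high mitotic counts were reproduced with independent dsRNAs and mitosis was checked for delay without damage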
Meaning of the calls: active = confirmed in follow-up tests; inactive = not confirmed
The deposit covers about 23,000 reagents; this is a random part of those with a known target gene and a result. Of all reagents, 62 (0.27%) are marked active. 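Calls come from follow-up tests whose scores are not deposited, so confirmed genes may have low counts here; counts are not normalised per plate.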 Raw values are not corrected between plates.

Target gene,DRSC id,"mitotic cells, replicate 1",outcome
CG9010,DRSC07320,4,inactive
pes (peste),DRSC03033,6,inactive
pes (peste),DRSC25954,3,inactive
Ccp84Aa,DRSC12586,3,inactive
Ccp84Aa,DRSC25114,13,inactive
Vps60 (Vacuolar protein sorting 60),DRSC10610,4,inactive
eIF6 (eukaryotic translation initiation factor 6),DRSC04674,11,inactive
eIF6 (eukaryotic translation initiation factor 6),DRSC29068,2,inactive
Cbp53E (Calbindin 53E),DRSC07356,6,inactive
Cbp53E (Calbindin 53E),DRSC24679,5,inactive
CG33322,DRSC03204,4,inactive
RpL15 (Ribosomal protein L15),DRSC20963,7,inactive
TwdlN (TweedleN),DRSC25037,8,inactive
CG14731,DRSC14952,9,inactive
ras (raspberry),DRSC18825,5,inactive
ras (raspberry),DRSC27137,9,inactive
CG32109,DRSC09816,6,inactive
aqz (aaquetzalli),DRSC16570,4,inactive
aqz (aaquetzalli),DRSC25042,11,inactive
"Rgk2 (Rad, Gem/Kir family member 2)",DRSC06503,,inactive
"Rgk2 (Rad, Gem/Kir family member 2)",DRSC21651,16,inactive
"Rgk2 (Rad, Gem/Kir family member 2)",DRSC25737,12,inactive
"Rgk2 (Rad, Gem/Kir family member 2)",DRSC29628,10,inactive
CG16717,DRSC10221,3,inactive
CG16717,DRSC29511,7,inactive
CG15255,DRSC01869,4,inactive
CG15255,DRSC29808,14,inactive
CG11892,DRSC14428,6,inactive
CG43325,DRSC04157,6,inactive
CG18788,DRSC02697,7,inactive
ttv (tout-velu),DRSC07709,2,inactive
ttv (tout-velu),DRSC26088,10,inactive
velo (veloren),DRSC08841,5,inactive
velo (veloren),DRSC09698,9,inactive
velo (veloren),DRSC27497,19,inactive
Sh (Shaker),DRSC19214,28,inactive
Sh (Shaker),DRSC19785,5,inactive
Sh (Shaker),DRSC20055,15,inactive
Sh (Shaker),DRSC25790,7,inactive
Sh (Shaker),DRSC25811,4,inactive
Obp56h (Odorant-binding protein 56h),DRSC06433,11,inactive
Obp56h (Odorant-binding protein 56h),DRSC24257,6,inactive
mdy (midway),DRSC01559,12,inactive
mdy (midway),DRSC02250,6,inactive
Rap2l (Ras-associated protein 2-like),DRSC04646,10,inactive

Reformatted: 2 of the entries above
{"Target gene": "CG32109", "DRSC id": "DRSC09816", "mitotic cells, replicate 1": 6, "outcome": "inactive"}
{"Target gene": "aqz (aaquetzalli)", "DRSC id": "DRSC16570", "mitotic cells, replicate 1": 4, "outcome": "inactive"}
